Values quoted from earlier work, collected in patent US20170326252A1, “Nanoparticles for Delivery of Agents to Glioblastoma Tumors” (Nanoforma Inc., priority 2016, published 2017).
At least one structure is not confirmed: it was looked up by name or label, or the drawing left a doubt.

Tested on: glioblastoma
Conditions: adults with more aggressive glioblastoma; concurrent temozolamide and radiation therapy

Cn1nnc2c(C(N)=O)ncn2c1=O [temozolamide]
median survival: about 14.6 months | two-year survival: 30%
